Laboratory results from PMC10980718.
Results are given in words; binding and its absence hold for the method and conditions named. Binding seen in cells or lysates may run through a third protein. Some entries that bind do so weakly or less than the wild type.

Target: STING (Stimulator of interferon genes) (human (endogenous in THP1)), Q86WV6
Assay: co-IP; endogenous STING or STEEP immunoprecipitated from THP1 cells pre-treated with mock or MβCD (2 mM) and then stimulated with cGAMP (50 µg/ml); IgG from sheep/rabbit serum as negative controls; immunoblot
Conditions: remark: other sources report otherwise

binding: binds
B1: TANK-binding kinase 1 (TBK1), Q9UHD2 1-729 (protein)
chain: MQSTSNHLWLLSDILGQGATANVFRGRHKKTGDLFAIKVFNNISFLRPVDVQMREFEVLKKLNHKNIVKLFAIEEETTTRHKVLIMEFCPCGSLYTVLEEPSNAYGLPESEFLIVLRDVVGGMNHLRENGIVHRDIKPGNIMRVIGEDGQSVYKLTDFGAARELEDDEQFVSLYGTEEYLHPDMYERAVLRKDHQKKYGATVDLWSIGVTFYHAATGSLPFRPFEGPRRNKEVMYKIITGKPSGAISGVQKAENGPIDWSGDMPVSCSLSRGLQVLLTPVLANILEADQEKCWGFDQFFAETSDILHRMVIHVFSLQQMTAHKIYIHSYNTATIFHELVYKQTKIISSNQELIYEGRRLVLEPGRLAQHFPKTTEENPIFVVSREPLNTIGLIYEKISLPKVHPRYDLDGDASMAKAITGVVCYACRIASTLLLYQELMRKGIRWLIELIKDDYNETVHKKTEVVITLDFCIRNIEKTVKVYEKLMKINLEAAELGEISDIHTKLLRLSSSQGTIETSLQDIDSRLSPGGSLADAWAHQEGTHPKDRNVEKLQVLLNCMTEIYYQFKKDKAERRLAYNEEQIHKFDKQKLYYHATKAMTHFTDECVKKYEAFLNKSEEWIRKMLHLRKQLLSLTNQCFDIEEEVSKYQEYTNELQETLPQKMFTASSGIKHTMTPIYPSSNTLVEMTLGMKKLKEEMEGVVKELAENNHILERFGSLTMDGGLRNVDCL
